# Laboratory results: article doi:10.1101/2024.08.12.607668 (bioRxiv, 2024)
# B1: AbrB antirepressor AbbA from B. subtilis 168, His6-tagged (natural protein, UniProt O31697 1-65, looked up)
# chain: MRMSLIGERFTEEEQKLLLNILINHEYAIELLSSEINDIETGTKNVDGTTYKKLVTLYDRFRFEN
# Experiments:
# [1] = target: AbrBBS R15A mutant, His6-tagged (B. subtilis 168); assay: native gel or EMSA
# [2] = target: AbrBBS K76A mutant, His6-tagged (B. subtilis 168); assay: native gel or EMSA
binder,measurement,setting,value
B1,binding,[1],no binding
same,binding,[2],binds

# Results are given in words; binding and its absence hold for the method and conditions named. For some assays here: A result given as binding can be weak or reduced; the word gives no strength. Sequences can lack the tags named with a protein.
